# According to patent US20200270322A1:
# The chains behind the UniProt entries cited, without tags or fusion partners. Residues count along the entry.
# 11A12, a recombinantly expressed ED-A (P02751, residues 1632-1903): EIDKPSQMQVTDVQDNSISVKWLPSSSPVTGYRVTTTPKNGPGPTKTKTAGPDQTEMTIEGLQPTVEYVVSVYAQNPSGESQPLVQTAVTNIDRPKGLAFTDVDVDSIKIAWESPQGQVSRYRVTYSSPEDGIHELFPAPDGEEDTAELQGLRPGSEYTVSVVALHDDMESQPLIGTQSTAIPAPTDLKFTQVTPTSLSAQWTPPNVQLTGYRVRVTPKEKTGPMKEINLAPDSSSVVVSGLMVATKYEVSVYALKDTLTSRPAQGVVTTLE
# Recombinant EDA-domain (P02751, residues 1722-1811): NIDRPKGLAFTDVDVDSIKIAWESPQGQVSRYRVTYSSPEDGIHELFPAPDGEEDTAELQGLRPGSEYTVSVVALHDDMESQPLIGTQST
# These are yes or no findings as the source states them, for the method shown. Some entries that bind do so weakly or less than the wild type.
# B1: hIL4-ScDbF8 (protein)
# chain: HKCDITLQEIIKTLNSLTEQKTLCTELTVTDIFAASKNTTEKETFCRAATVLRQFYSHHEKDTRCLGATAQQFHRHKQLIRFLKRLDRNLWGLAGLNSCPVKEANQSTLENFLERLKTIMREKYSKCSSGGGGSGGGGSGGGGSEVQLLESGGGLVQPGGSLRLSCAASGFTFSLFTMSWVRQAPGKGLEWVSAISGSGGSTYYADSVKGRFTISRDNSKNTLYLQMNSLRAEDTAVYYCAKSTHLYLFDYWGQGTLVTVSSGGSGGEIVLTQSPGTLSLSPGERATLSCRASQSVSMPFLAWYQQKPGQAPRLLIYGASSRATGIPDRFSGSGSGTDFTLTISRLEPEDFAVYYCQQMRGRPPTFGQGTKVEIKSSSSGSSSSGSSSSGEVQLLESGGGLVQPGGSLRLSCAASGFTFSLFTMSWVRQAPGKGLEWVSAISGSGGSTYYADSVKGRFTISRDNSKNTLYLQMNSLRAEDTAVYYCAKSTHLYLFDYWGQGTLVTVSSGGSGGEIVLTQSPGTLSLSPGERATLSCRASQSVSMPFLAWYQQKPGQAPRLLIYGASSRATGIPDRFSGSGSGTDFTLTISRLEPEDFAVYYCQQMRGRPPTFGQGTKVEIK
# B2: ScFvF8-hIL4-ScFvF8 (protein)
# chain: EVQLLESGGGLVQPGGSLRLSCAASGFTFSLFTMSWVRQAPGKGLEWVSAISGSGGSTYYADSVKGRFTISRDNSKNTLYLQMNSLRAEDTAVYYCAKSTHLYLFDYWGQGTLVTVSSGGGGSGGGGSGGGGEIVLTQSPGTLSLSPGERATLSCRASQSVSMPFLAWYQQKPGQAPRLLIYGASSRATGIPDRFSGSGSGTDFTLTISRLEPEDFAVYYCQQMRGRPPTFGQGTKVEIKSSSSGSSSSGSSSSGHKCDITLQEIIKTLNSLTEQKTLCTELTVTDIFAASKNTTEKETFCRAATVLRQFYSHHEKDTRCLGATAQQFHRHKQLIRFLKRLDRNLWGLAGLNSCPVKEANQSTLENFLERLKTIMREKYSKCSSSSSSGSSSSGSSSSGEVQLLESGGGLVQPGGSLRLSCAASGFTFSLFTMSWVRQAPGKGLEWVSAISGSGGSTYYADSVKGRFTISRDNSKNTLYLQMNSLRAEDTAVYYCAKSTHLYLFDYWGQGTLVTVSSGGGGSGGGGSGGGGEIVLTQSPGTLSLSPGERATLSCRASQSVSMPFLAWYQQKPGQAPRLLIYGASSRATGIPDRFSGSGSGTDFTLTISRLEPEDFAVYYCQQMRGRPPTFGQGTKVEIK
# B3: ScDbF8-hIL4 (protein)
# chain: EVQLLESGGGLVQPGGSLRLSCAASGFTFSLFTMSWVRQAPGKGLEWVSAISGSGGSTYYADSVKGRFTISRDNSKNTLYLQMNSLRAEDTAVYYCAKSTHLYLFDYWGQGTLVTVSSGGSGGEIVLTQSPGTLSLSPGERATLSCRASQSVSMPFLAWYQQKPGQAPRLLIYGASSRATGIPDRFSGSGSGTDFTLTISRLEPEDFAVYYCQQMRGRPPTFGQGTKVEIKSSSSGSSSSGSSSSGEVQLLESGGGLVQPGGSLRLSCAASGFTFSLFTMSWVRQAPGKGLEWVSAISGSGGSTYYADSVKGRFTISRDNSKNTLYLQMNSLRAEDTAVYYCAKSTHLYLFDYWGQGTLVTVSSGGSGGEIVLTQSPGTLSLSPGERATLSCRASQSVSMPFLAWYQQKPGQAPRLLIYGASSRATGIPDRFSGSGSGTDFTLTISRLEPEDFAVYYCQQMRGRPPTFGQGTKVEIKGGGGSGGGGSGGGGSHKCDITLQEIIKTLNSLTEQKTLCTELTVTDIFAASKNTTEKETFCRAATVLRQFYSHHEKDTRCLGATAQQFHRHKQLIRFLKRLDRNLWGLAGLNSCPVKEANQSTLENFLERLKTIMREKYSKCSS
# Target: 11A12, a recombinantly expressed ED-A (UniProt P02751)
# Test: SPR, Biacore 3000, 11A12 coated on a CM5 chip
row,binding,Binder
1,binds,B1
2,binds,B2
3,binds,B3

# Target: Recombinant EDA-domain (UniProt P02751)
# Test: ELISA on immobilised recombinant EDA-domain, detected with anti-hIL4 and anti-mouse IgG-HRP
row,binding,Binder
1,binds,B1
2,binds,B2
3,binds,B3
